For at least one compound, name, drawing or mass did not settle the structure.
Legend:
HIV-1 LTR = assay: Transient transfection luciferase assay of HIV-1 LTR-directed transcription / Tat transactivation; type: cell-based; details: preliminary results
Procedure: Characterization of MCEF. Chromosomal location for MCEF was determined using BLAST. Alignments and phylogenetic trees with AF4/FMR2 family members are generated using ClustalW and cladistic analysis respectively(MacVector 6.5). Human Multiple Tissue Northern blot (Clonetech) were hybridized with the 570 bp probe used for the screening (see above) as per the manufacturers recommendations. For making rMCEF proteins, the sequences corresponding to the amino acid positions of MCEF were amplified with primers designed to generate a 5′-NdeI site and a 3′-BamHI site, and cloned into the NdeI and BamHI sites of pet-6HIS-11 d (Novagen). Respective clones were expressed in BL21 cells under IPTG induction and the best expressing clones used to generate excess of 1.5 mg of rMCEF proteins, nickel column purified and gel excised for injection into rabbits (COVANCE, standard protocol). For ectopic expression of MCEF in transient transfections, a of pcDNA constructs were generated. The pSV-Tat construct drove the expression of Tat exon 1 from the RSV promoter. The CDK9 cDNAs were obtained from Kathy Jones (Salk Institute, Calif.). […] All of the cDNA derived clones used in this work (CDK9, DSIFp160, CTD) obtained from other investigators, can be readily made, by designing primers for amplification from their respective Genbank sequences, and cloning a respective amplification product from any human tissue. […]

HIV-1 = assay: Single-round HIV-1 replication assay measuring p24 antigen in cell culture supernatants; type: cell-based; details: preliminary results
Procedure: Transfection of HeLa cells was performed by using FuGene6 transfection reagent (Boehringer Mannheim) as described previously (Naghavi et al., 2001; Naghavi et al., 1999). A human growth hormone (HGH)-expressing construct (as an internal control for transfection efficiency) was included with the pNL4-3-infectious clone. Cell culture supernatants were collected at 24 hours and analysed in HGH ELISA (Boehringer Mannheim). To monitor the p24^gag production in transfections with pNL4-3-derived plasmids, cell culture supernatants were analyzed in a p24^gag antigen capture HIVAG-1 ELISA (Abbott, North Chicago, Ill.) according to the manufacturers instructions.
In order to examine the potential effect of MCEF on HIV-1 replication, we examined in vivo effects of ectopic expression in HeLa cells. […] In addition, because of the significant size difference between the effector (MCEF) construct and the empty vector, at equimolar plasmid concentrations empty vector transfections always contained less total DNA than effector transfections. Therefore, we made the identical size antisense construct (as a negative control) and then compared the effects of sense versus antisense MCEF-expressing vectors at a non-toxic concentration of 2 mg (now at equimolar concentrations).

In the case of `COC1=C2C[C@@H](C)C[C@H](OC)[C@H](O)[C@@H](C)/C=C(\C)[C@H](OC(N)=O)[C@@H](OC)/C=C\C=C(/C)C(=O)NC(=CC1=O)C2=O` [Geldanamycin], the “effect on Tat-transactivation / LTR-directed transcription” value (HIV-1 LTR) was “profound repressive effect”, the “effect on Tat-transactivation / LTR-directed transcription” value (HIV-1 LTR; listed as geldanamycin) was “inhibition of HIV-1 replication or LTR-directed transcription at cytotoxic concentrations” and the “effect on HIV-1 viral replication” value (HIV-1) was “profound repressive effect”. The “effect on HIV-1 viral replication” value (HIV-1; listed as geldanamycin) was “inhibition of HIV-1 replication or LTR-directed transcription at cytotoxic concentrations”.
